PubChem BioAssay AID504808 – Drosophila RNAi Screening Center | 2011

Aim: 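Genes whose loss lifts activity of an E2F-responsive reporter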 (primary screen)
Cells: Drosophila S2 cells
Knock-down reagent: long dsRNA against Drosophila genes
Read-out: 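Dual luciferase plate measurements; E2F-specific signal taken as firefly over Renilla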
Scale: E2F firefly: higher = more E2F reporter activity; Renilla normaliser: higher = more normaliser reporter signal
Rule for the call: 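a knock-down counted as active when the firefly/Renilla E2F signal rose above 50%, a threshold chosen arbitrarily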
The screen tested about 21,000 reagents; below is a random part of those with a known target gene and a result. In the full data, 18 (0.084%) are marked active. 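Raw counts without plate normalisation, one of two replicates; the ratio scores behind the calls were not deposited.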 The numbers tell different reagents against one gene apart. Names joined by + are all predicted targets of the reagent. The record does not give: the amount of reagent, the time to read-out.

For Cam #1, the entry reads E2F firefly, rep 1 = 1.02e5; Renilla normaliser, rep 1 = 4233; inactive.
Depletion of Cam #2 gave: E2F firefly, rep 1 = 1.16e5; Renilla normaliser, rep 1 = 4858; inactive.
For Ccdc39, the values are E2F firefly, rep 1 = 1.33e5; Renilla normaliser, rep 1 = 7293; inactive.
Rh3 gave E2F firefly, rep 1 = 67194; Renilla normaliser, rep 1 = 2881; inactive.
Gr98d showed E2F firefly, rep 1 = 1.11e5; Renilla normaliser, rep 1 = 6347; inactive.
CG13318 showed E2F firefly, rep 1 = 1.28e5; Renilla normaliser, rep 1 = 6326; inactive.
Against CG8560, the values are E2F firefly, rep 1 = 65617; Renilla normaliser, rep 1 = 3149; inactive.
Knock-down of spn-A resulted in: E2F firefly, rep 1 = 1.23e5; Renilla normaliser, rep 1 = 5801; inactive.
With knock-down of cpo, the screen gave E2F firefly, rep 1 = 79170; Renilla normaliser, rep 1 = 2194; inactive.
For CG3640, the values are E2F firefly, rep 1 = 1.15e5; Renilla normaliser, rep 1 = 5078; inactive.

A few values from the entries so far:
For “outcome”, Rh3 shows inactive
Gr98d, outcome = inactive
Under “Renilla normaliser, rep 1”, Ccdc39 shows 7293

More results follow:
Knock-down of FoxL1 gave: E2F firefly, rep 1 = 1.04e5; Renilla normaliser, rep 1 = 4261; inactive.
KP78a + KP78b #1 gave E2F firefly, rep 1 = 1.57e5; Renilla normaliser, rep 1 = 6964; inactive.
With knock-down of KP78a + KP78b #2, the screen gave E2F firefly, rep 1 = 1.55e5; Renilla normaliser, rep 1 = 7281; inactive.
For Ir40a #1, the values are E2F firefly, rep 1 = 1.09e5; Renilla normaliser, rep 1 = 4238; inactive.
Knock-down of Ir40a #2 resulted in: E2F firefly, rep 1 = 1.04e5; Renilla normaliser, rep 1 = 4447; inactive.
For Rpn2 the deposit lists E2F firefly, rep 1 = 1296; Renilla normaliser, rep 1 = 1140; inactive.
Knock-down of CG3494 resulted in: E2F firefly, rep 1 = 1.10e5; Renilla normaliser, rep 1 = 4394; inactive.
tun #1 gave E2F firefly, rep 1 = 1.21e5; Renilla normaliser, rep 1 = 4427; inactive.
tun #2 showed E2F firefly, rep 1 = 84064; Renilla normaliser, rep 1 = 4052; inactive.
